The values that follow come from PMC12092617.

The assay has as its target T1, SLC25A10 (mitochondrial dicarboxylate carrier) (human (endogenous in PC-3 and 22RV1)) (UniProt Q9UBX3).
T1 sequence: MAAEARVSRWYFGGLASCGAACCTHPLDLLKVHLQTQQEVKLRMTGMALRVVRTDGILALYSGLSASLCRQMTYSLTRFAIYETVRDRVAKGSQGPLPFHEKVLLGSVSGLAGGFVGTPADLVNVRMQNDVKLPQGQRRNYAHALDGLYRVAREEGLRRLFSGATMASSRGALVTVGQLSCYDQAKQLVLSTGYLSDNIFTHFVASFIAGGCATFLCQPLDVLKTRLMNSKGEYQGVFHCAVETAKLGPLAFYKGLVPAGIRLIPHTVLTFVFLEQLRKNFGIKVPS
The experiment in a line: affinity purification with mass spectrometry; IP with anti-SLC25A10 antibody (control IgG) from PC-3 and 22RV1 lysates in RIPA buffer, protein A/G magnetic beads, 4 °C overnight; eluates by SDS-PAGE and Orbitrap mass spectrometry.

Results are given in words; binding and its absence hold for the method and conditions named. Binding seen in cells or lysates may run through a third protein. Here binding means that the protein was enriched with, or labelled near, the bait; the list need not be complete.

Regarding “SQSTM1 (p62), endogenous (from UniProt Q13501 1-440)”, the binding result is on record as “binds”.
